{"sequences": {"note": "The chains behind the UniProt entries cited, without tags or fusion partners.", "UniProt P09471, whole entry, looked up": "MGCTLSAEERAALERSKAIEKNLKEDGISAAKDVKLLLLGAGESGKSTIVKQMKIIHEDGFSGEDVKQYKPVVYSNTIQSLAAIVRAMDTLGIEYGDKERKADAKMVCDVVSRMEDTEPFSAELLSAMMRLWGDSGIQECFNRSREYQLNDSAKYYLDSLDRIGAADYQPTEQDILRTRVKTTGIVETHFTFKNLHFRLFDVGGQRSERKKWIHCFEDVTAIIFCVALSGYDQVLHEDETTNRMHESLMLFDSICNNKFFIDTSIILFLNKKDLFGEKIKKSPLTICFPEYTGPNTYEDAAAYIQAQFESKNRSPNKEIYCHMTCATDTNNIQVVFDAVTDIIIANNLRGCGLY"}, "source": "PubChem BioAssay AID1439", "about": "(NMMLSC, 2008)", "note": "Out of some 220,000 compounds screened, about 770 (0.35%) were called active. The shares of active, inactive and inconclusive entries below differ from those in the screen. Rule as the data show it: active = binding response below about 49% or above about 150%; inconclusive = no clear call, values can overlap the other calls; inactive = in between.", "data": [{"target": "Guanine nucleotide-binding protein G(o) subunit alpha (Homo sapiens) (UniProt P09471)", "assay": "RGS7-Galphao binding modulators, primary screen, biochemical, multiplexed bead flow cytometry (AID 1439);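 also: fluorescent Galphao held in activated GDP-AlF4 state binding bead-coupled RGS7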", "conditions": "at 10 µM, actives lie on both sides", "values": [{"smiles": "CCOc1ccc(NC(=S)NC(=O)/C=C/c2ccc(Br)cc2)c([N+](=O)[O-])c1", "binding response (% of control)": "inconclusive: 108%"}, {"smiles": "N#C/C(=N\\Nc1cccc(C(F)(F)F)c1)C(=O)c1ccsc1", "binding response (% of control)": "inconclusive: 71.2%"}, {"smiles": "CCN(CC)C(=O)Oc1nnc(SC(C)C)n1-c1ccc(Cl)c(Cl)c1", "binding response (% of control)": "inconclusive: 115%"}, {"smiles": "CCn1ncc(Br)c1C(=O)Nc1ccc(C(=O)OC(C)C)cc1", "binding response (% of control)": "inactive: 102%"}, {"smiles": "CCn1c(SCC(=O)Nc2ccccc2)nc2nc3c(cc2c1=O)COC(C)(C)C3", "binding response (% of control)": "inconclusive: 112%"}, {"smiles": "CCOC(=O)c1ccc(S(=O)(=O)NNC(=O)c2ccc3c(c2)nc(C)n3CC)cc1", "binding response (% of control)": "inconclusive: 92.5%"}, {"smiles": "O=C1NC[C@H](Cc2ccc(O)cc2)N(CC2CCCCC2)C1=O", "binding response (% of control)": "inconclusive: 111%"}, {"smiles": "O=C(Cc1c2ccccc2nc2ccccc12)c1ccccc1", "binding response (% of control)": "inactive: 102%"}, {"smiles": "CC12COC3(C(N)=O)CC1CCC32C", "note": "(stereo not drawn)", "binding response (% of control)": "inactive: 108%"}, {"smiles": "CCc1cccc2c(C(=O)COC(=O)C3=NNC(=O)CC3)c[nH]c12", "binding response (% of control)": "inconclusive: 120%"}, {"smiles": "CC(=O)Nc1ccc(SCC(=O)Nc2cc(C)on2)cc1", "binding response (% of control)": "inconclusive: 107%"}, {"smiles": "O=c1c2ccccc2nc(/C=C/c2ccc3c(c2)OCO3)n1CCCO", "binding response (% of control)": "active: 168% [activator]"}, {"smiles": "COc1ccc(C2c3ccc(O)cc3Oc3ncn(CCCO)c(=N)c32)cc1OC", "note": "(stereo not drawn)", "binding response (% of control)": "inconclusive: 131%"}, {"smiles": "CN1C[C@@H]2C(c3ccccc3)C3(c4ccccc4)CC2(C3)[C@H]1c1ccccc1", "note": "(stereo partly drawn)", "binding response (% of control)": "inconclusive: 124%"}, {"smiles": "S=C(Nc1ccc2c(c1)OCO2)Nc1ccccc1Cl", "binding response (% of control)": "inconclusive: 1.29%"}, {"smiles": "COc1cccc(CC(=O)Nc2ccc(-c3csc(C)n3)cc2)c1", "binding response (% of control)": "inconclusive: 134%"}, {"smiles": "COC(=O)CCCC1=CC2=C(c3ccccc3)C(=O)C(C)(OC(=O)C3CCCC3)C(=O)C2=CN1C1CCCCC1", "note": "(stereo not drawn)", "binding response (% of control)": "inconclusive: 97.7%"}, {"smiles": "COc1ccc(C2NC(=O)NC(C)=C2[N+](=O)[O-])cc1OC", "note": "(stereo not drawn)", "binding response (% of control)": "inconclusive: -264%"}, {"smiles": "CCN1C(=O)/C(=C\\c2nc3ccccc3c(=O)n2CC)c2ccccc21", "binding response (% of control)": "inconclusive: 93%"}, {"smiles": "CNC(=O)COc1ccc(Nc2nnc(C)c3ccccc23)cc1", "binding response (% of control)": "inconclusive: 124%"}, {"smiles": "CC(C)CN(C)Cc1c(C(=O)N2CCc3ccccc3C2)nc2ccc(Cl)cn12", "binding response (% of control)": "inactive: 119%"}, {"smiles": "CC1(C)CC(NC(=O)c2ccccc2C(=O)NC2CC(C)(C)NC(C)(C)C2)CC(C)(C)N1", "binding response (% of control)": "inactive: 96.4%"}, {"smiles": "CCCn1nnc(NC(=O)/C=C/c2cc(Br)ccc2OC)n1", "binding response (% of control)": "inconclusive: 89.5%"}, {"smiles": "O=c1c(Cc2ccc(F)cc2)c(O)ccn1Cc1ccc(F)cc1", "binding response (% of control)": "inconclusive: 95.6%"}, {"smiles": "COc1ccc(-c2nc(C)sc2C)cc1", "binding response (% of control)": "inactive: 118%"}, {"smiles": "O=[N+]([O-])c1ccc(O)c(/C=N/n2c(CO)nc3ccccc32)c1", "binding response (% of control)": "inconclusive: 101%"}, {"smiles": "C[C@H](NC(=O)c1[nH]cnc1C(=O)Nc1ccc(CNC(=O)OC(C)(C)C)cc1)C(=O)OCc1ccccc1", "binding response (% of control)": "inconclusive: 148%"}, {"smiles": "Cn1c(=O)c2c(ncn2CC(COCc2ccccc2)OCc2ccccc2)n(C)c1=O", "note": "(stereo not drawn)", "binding response (% of control)": "inconclusive: 32.8%"}, {"smiles": "Cc1ccc(C(NC(=O)NC(C)c2ccccc2)C(Cl)(Cl)Cl)cc1F", "note": "(stereo not drawn)", "binding response (% of control)": "inactive: 97.9%"}, {"smiles": "O=C(C1=NN[C@@H]2C(=O)N(c3ccccc3C(F)(F)F)C(=O)[C@H]12)c1cnccn1", "binding response (% of control)": "inconclusive: 110%"}, {"smiles": "CCN1C/C(=C/c2sccc2C)c2nc3ccccc3c(C(=O)O)c2C1", "binding response (% of control)": "inconclusive: 122%"}, {"smiles": "Cc1nc2nc(CC(=O)O)[nH]n2c(=O)c1[N+](=O)[O-]", "binding response (% of control)": "inconclusive: 93.7%"}, {"smiles": "CCCn1c(=O)c(C(=O)NNS(=O)(=O)c2ccc(Cl)cc2)c(O)c2ccccc21", "binding response (% of control)": "inactive: 95.2%"}, {"smiles": "COc1ccc(C(=O)CSc2nc(C(C)(C)C)nc3ccccc23)cc1", "binding response (% of control)": "inactive: 97%"}, {"smiles": "COc1ccc(-c2nc(SC(CC(=O)NCCN3CCOCC3)c3cccs3)n[nH]2)cc1", "note": "(stereo not drawn)", "binding response (% of control)": "inconclusive: 87.3%"}, {"smiles": "COCCCNC(=O)c1ccccc1-c1cc(C)no1", "binding response (% of control)": "inconclusive: -323%"}, {"smiles": "COc1ccc(-c2n[nH]c(C)c2-c2cscn2)c(O)c1", "binding response (% of control)": "inconclusive: 128%"}, {"smiles": "Cc1cc(N/C=C(\\C#N)S(=O)(=O)c2ccccc2Cl)nc(C)n1", "binding response (% of control)": "inconclusive: -22%"}, {"smiles": "COc1cccc(CN2CCN(Cc3cccn3-c3cccnc3)CC2CCO)c1", "note": "(stereo not drawn)", "binding response (% of control)": "inactive: 99.2%"}, {"smiles": "CCC(c1nnnn1Cc1cccs1)N1CCN(C2CCCC2)CC1", "note": "(stereo not drawn)", "binding response (% of control)": "inactive: 108%"}, {"smiles": "O=C(COc1ccc(Cl)cc1)N(Cc1ccco1)C1CCS(=O)(=O)C1", "note": "(stereo not drawn)", "binding response (% of control)": "inconclusive: 102%"}, {"smiles": "O=C(O)CC(CCc1ccccc1)OC1OC(CO)C(O)C(O)C1O", "note": "(stereo not drawn)", "binding response (% of control)": "inconclusive: -29.9%"}, {"smiles": "CC(=O)N1C(C)(C)CC(=NOS(=O)(=O)c2ccccc2)CC1(C)C", "binding response (% of control)": "inactive: 90.5%"}, {"smiles": "CCCCCOc1ccc(CSC(=N)N)cc1[N+](=O)[O-]", "binding response (% of control)": "active: 49.4%"}, {"smiles": "O=C(Cn1nnc2ccccc21)OCC(=O)c1ccc(F)cc1", "binding response (% of control)": "inconclusive: 21.1%"}, {"smiles": "CC1(c2nnc(-c3ccc(F)cc3)o2)CC(c2ccccc2)=NO1", "note": "(stereo not drawn)", "binding response (% of control)": "inconclusive: 69.7%"}, {"smiles": "Cc1ccc(-n2nc(C)cc2NC(=O)CC#N)cc1", "binding response (% of control)": "inconclusive: 108%"}, {"smiles": "CCC1(CC)Cc2ccccc2-c2nc(NN)[nH]c(=O)c21", "binding response (% of control)": "inconclusive: 90.3%"}, {"smiles": "Cc1cccc(-n2cnc3sc(C)c(C)c3c2=O)c1", "binding response (% of control)": "inconclusive: 90.6%"}, {"smiles": "COc1cccc(C(=O)N(c2ccc(C)cc2)C2C=CS(=O)(=O)C2)c1", "note": "(stereo not drawn)", "binding response (% of control)": "inactive: 92.6%"}, {"smiles": "C/C(=N\\Nc1ccc([N+](=O)[O-])cc1)c1ccc(C#N)cc1", "binding response (% of control)": "inconclusive: 110%"}, {"smiles": "Cc1ccc2c(c1)COc1c3ccc(C(=O)NC(C)C)cc3nn1-2", "binding response (% of control)": "inconclusive: 83%"}, {"smiles": "O=C(NCc1cccs1)c1cccn2c(=O)c3sccc3nc12", "binding response (% of control)": "inconclusive: 118%"}, {"smiles": "COC(=O)c1c(C)cc(C)c2c1CC(C)(C)C2=O", "binding response (% of control)": "inconclusive: 130%"}, {"smiles": "CCCCOC(=O)CCc1c(C)n[nH]c1C", "binding response (% of control)": "inconclusive: 96.3%"}, {"smiles": "N#CC(c1nc2ccccc2nc1OCCO)S(=O)(=O)c1ccccc1", "note": "(stereo not drawn)", "binding response (% of control)": "inconclusive: 82.6%"}, {"smiles": "COc1ccccc1-c1nnc(SCC(=O)NCc2cccs2)n1N", "binding response (% of control)": "inconclusive: 125%"}, {"smiles": "CCOC(=O)C1=C(C)NC(C)=C(C(=O)OCC)C1C(=O)OCC(=O)N(CC)C1CCS(=O)(=O)C1", "note": "(stereo not drawn)", "binding response (% of control)": "inactive: 103%"}]}]}
